Source: PubChem BioAssay AID504444 (National Center for Advancing Translational Sciences (NCATS), 2011)
Hit rate of the full screen: of about 360,000 compounds, about 7,500 (2.1%) were called active. The inconclusive results got no clear call from the source; some entries with a clear call stand among them for comparison. Calls come from the whole dose curve; as a rule, active = well fitted inhibition curve with a large enough effect; inconclusive = small, poorly fitted or top-dose-only effect, or effect the other way; inactive = flat fitted curve, though single readings scatter. A potency beside an inconclusive call is a rough fit, not a confirmed value.

test: Nrf2 qHTS screen for inhibitors; settings: A549 ARE-Fluc reporter, luciferase luminescence, 18-24 h; series mostly up to 46 µM; note: nearly all actives have a fitted effect of over 60% in size
Outline: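 Two sequential reads on A549 ARE_Fluc cells exposed to compound for 18-24 h: a CellTiter-Fluor fluorescence read for viability, then a luciferase luminescence read for Nrf2/ARE activity.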
Potency is the fitted concentration of half-maximal effect.

**Q.** For `Cc1ccccc1CCN(C(=O)Cn1nnc2ccccc21)C(C(=O)NC(C)(C)C)c1ccsc1` (stereo not drawn), which Potency is on record?
**A.** inconclusive: 0.231 µM [falling, full curve]

**Q.** With `Cc1cccc(NC(=O)C2(C)Cc3ccccc3C(=O)O2)c1` (stereo not drawn) as the molecule, how does the Potency read?
**A.** inactive

**Q.** Which Potency does the source give for `COc1ccc2sc(N(CCN(C)C)C(=O)/C=C/c3cccs3)nc2c1` here?
**A.** inactive

**Q.** Which Potency does the source give for `CCCC[C@@H]1CN=C(N)N1CCc1cc(C(F)(F)F)cc(C(F)(F)F)c1` here?
**A.** inconclusive: 1.64 µM [falling, partial curve, poor fit]

**Q.** Which Potency does the source give for `Cc1cc(C)cc(Oc2coc3cc(O)ccc3c2=O)c1` here?
**A.** inconclusive: 2.91 µM [falling, full curve, poor fit]

**Q.** Which Potency does the source give for `Cc1nc(-c2cnn(-c3ccccc3)c2)c2cc(C)oc2n1` here?
**A.** inconclusive: 2.59 µM [falling, partial curve, poor fit]

**Q.** For `O=C(CN1c2ccccc2Sc2ccccc21)N/N=C/c1ccc([N+](=O)[O-])cc1`, which Potency is on record?
**A.** inconclusive: 2.06 µM [falling, full curve, poor fit]

**Q.** For `Cc1cccc(N2CCN(C(=O)c3ccc(N4CCCC4=O)cc3)CC2)c1C`, which Potency is on record?
**A.** inconclusive: 29.1 µM [falling, single point]

**Q.** With `CCc1ccc(NC(=O)CCCn2nc(C)c3c(C)n(-c4ccccc4)nc3c2=O)cc1` as the molecule, how does the Potency read?
**A.** inactive

**Q.** For `CCN1CCC(CNCc2cn(-c3ccc(OC)cc3)nc2-c2ccccc2Cl)C1` (stereo not drawn), which Potency is on record?
**A.** inactive

**Q.** With `Cc1nn(CCc2n[nH]c(=S)n2-c2ccc(F)cc2)c(C)c1[N+](=O)[O-]` as the molecule, how does the Potency read?
**A.** inconclusive: 2.31 µM [activator, single point]

**Q.** Which Potency does the source give for `CN(CCc1ccccn1)C(=O)Nc1ccc(F)cc1` here?
**A.** inactive

**Q.** With `O=C(O)c1cccc(NS(=O)(=O)c2ccc(C3CCCCC3)cc2)c1` as the molecule, how does the Potency read?
**A.** inconclusive: 9.2 µM [activator, partial curve, poor fit]

**Q.** Which Potency does the source give for `O=c1cc2oc3cc(O)c(O)cc3c(-c3ccccc3O)c-2cc1O` here?
**A.** inconclusive: 18.4 µM [falling, partial curve, poor fit]

**Q.** Which Potency does the source give for `CCOCCCNc1ncnc2c1[nH]c1ccccc12` here?
**A.** active: 23.1 µM

**Q.** For `CCOc1ccc(C(=O)Nc2ccc3nc(SCC(=O)N(C)c4ccccc4)sc3c2)cc1`, which Potency is on record?
**A.** active: 5.8 µM

**Q.** With `Nc1cc2c(cc1Cl)-c1ccc(Cl)cc1C2` as the molecule, how does the Potency read?
**A.** inconclusive: 18.4 µM [activator, single point]

**Q.** For `COc1ccc(NC(=S)N/N=C/c2cccn2Cc2ccc(F)cc2Cl)cc1`, which Potency is on record?
**A.** inconclusive: 18.4 µM [falling, single point]

**Q.** With `O=C(NC(=S)Nc1ccc(S(=O)(=O)Nc2ncccn2)cc1)c1ccc(Br)cc1` as the molecule, how does the Potency read?
**A.** inactive

**Q.** For `CCOC(=O)c1c(-c2cccs2)csc1NC(=O)CC(C)C`, which Potency is on record?
**A.** inactive

**Q.** For `CCOc1ccc(N(CC(=O)N2CCN(c3ccc(F)cc3)CC2)S(=O)(=O)c2c(C)noc2C)cc1`, which Potency is on record?
**A.** inconclusive: 18.4 µM [falling, partial curve, poor fit]

**Q.** For `CN(C)S(=O)(=O)c1ccc(C(=O)NCCSc2ccc(Br)cc2)cc1`, which Potency is on record?
**A.** active: 20.6 µM

**Q.** Which Potency does the source give for `COc1ccccc1CNC(=O)c1ccc(Nc2nc3ccccc3n3nnnc23)cc1` here?
**A.** inconclusive: 0.58 µM [falling, full curve]

**Q.** For `CCOc1ccc(/C=C/c2nc3ccccc3n2S(=O)(=O)c2cccc(Cl)c2)cc1`, which Potency is on record?
**A.** inconclusive: 1.16 µM [activator, full curve]

**Q.** With `Nc1nc(Nc2cc(F)cc(F)c2)nc(NC2CCCC2)n1` as the molecule, how does the Potency read?
**A.** inactive

**Q.** With `Cc1ccccc1OCCCSc1nc2ccccc2[nH]1` as the molecule, how does the Potency read?
**A.** inconclusive: 23.1 µM [falling, single point]

**Q.** Which Potency does the source give for `Nc1ccnc(Oc2ccc(F)cc2)c1` here?
**A.** inconclusive: 13 µM [activator, partial curve]

**Q.** With `COC(=O)c1ccc2c(=O)n(CCCCCC(=O)NC(C)C)c(=O)[nH]c2c1` as the molecule, how does the Potency read?
**A.** inactive

**Q.** Which Potency does the source give for `Cc1cc(C)cc(NC(=O)CCS(=O)(=O)c2ccc3c(c2)oc(=O)n3C)c1` here?
**A.** inactive

**Q.** For `O=C(Nc1nnc(SCc2ccccc2)s1)C1=COCCO1`, which Potency is on record?
**A.** inconclusive: 3.26 µM [activator, full curve, poor fit]

**Q.** For `COc1cc(CNCCc2ccccc2)cc(Cl)c1OCc1ccccc1`, which Potency is on record?
**A.** inconclusive: 29.1 µM [falling, single point]

**Q.** For `COc1cccc(C(=O)Nc2ccc(-c3nnc(-c4ccco4)o3)cc2)c1`, which Potency is on record?
**A.** inconclusive: 18.4 µM [falling, single point]

**Q.** For `O=C1N[C@H](Cc2ccccc2)COC(=O)[C@@H](Cc2ccc(F)cc2)C/C=C\C[C@H]1CC(=O)N(CCO)Cc1ccccc1`, which Potency is on record?
**A.** inconclusive: 18.4 µM [falling, single point]

**Q.** With `CC(C)c1ccc(NC(=S)NCCc2c[nH]c3ccccc23)cc1` as the molecule, how does the Potency read?
**A.** inconclusive: 29.1 µM [falling, partial curve, poor fit]

**Q.** For `CC(=O)C(Sc1nc(NC(C)(C)C)nc(N(C)C)n1)C(C)=O`, which Potency is on record?
**A.** inconclusive: 23.1 µM [falling, single point]

**Q.** For `Cc1ccc(Cl)cc1NC(=O)N1CCc2cc(S(=O)(=O)N3CCC(C)CC3)ccc21`, which Potency is on record?
**A.** inactive

**Q.** With `Cc1ccc(-c2csc(SCC(=O)c3c(N)n(C4CC4)c(=O)[nH]c3=O)n2)cc1` as the molecule, how does the Potency read?
**A.** inconclusive: 16.4 µM [activator, partial curve, poor fit]

**Q.** With `Cc1ccc(/C=N/NC(=O)c2ccoc2C)s1` as the molecule, how does the Potency read?
**A.** inconclusive: 11.6 µM [activator, partial curve, poor fit]

**Q.** With `CCOC(=O)CCn1cnc2onc(-c3ccccc3Cl)c2c1=O` as the molecule, how does the Potency read?
**A.** inconclusive: 13 µM [activator, partial curve, poor fit]

**Q.** Which Potency does the source give for `Fc1ccc(N=c2ssnc2Cl)c(F)c1` here?
**A.** inactive

**Q.** Which Potency does the source give for `COc1cc(Cl)c(C)cc1NS(=O)(=O)c1c(C)nc2sccn2c1=O` here?
**A.** inactive

**Q.** With `O=CC1=C(c2ccccc2)Oc2ccccc2O1` as the molecule, how does the Potency read?
**A.** inactive

**Q.** With `COc1cccc(NC(=O)NC2CCN(Cc3nnnn3Cc3ccc(F)cc3)CC2)c1` as the molecule, how does the Potency read?
**A.** inconclusive: 8.2 µM [falling, partial curve, poor fit]

**Q.** Which Potency does the source give for `CC(Sc1nnc(NCc2ccccc2)s1)C(=O)Nc1ccc2c(c1)C(=O)c1ccccc1C2=O` (stereo not drawn) here?
**A.** inconclusive: 1.84 µM [activator, partial curve]

**Q.** Which Potency does the source give for `COc1ccc(C2=C(C)C(=O)N(Cc3ccc(C(=O)Nc4ccc(C)c(C)c4)cc3)S2(=O)=O)cc1` here?
**A.** inconclusive: 0.116 µM [activator, full curve, poor fit]

**Q.** For `CCN(CC(=O)Nc1c(F)cccc1F)C(=O)Cc1ccc2c(c1)CCC2`, which Potency is on record?
**A.** inconclusive: 16.4 µM [falling, partial curve, poor fit]

**Q.** For `COc1ccc(NC(=O)CN(c2ccccc2OC)S(C)(=O)=O)c(OC)c1`, which Potency is on record?
**A.** inactive

**Q.** With `COc1ccc(NC(=O)NC2CCCCCCC2)cc1` as the molecule, how does the Potency read?
**A.** inconclusive: 1.84 µM [activator, full curve]

**Q.** For `CCc1ccccc1NC(=O)c1cnc2scc(C)n2c1=O`, which Potency is on record?
**A.** inconclusive: 25.9 µM [activator, single point]

**Q.** Which Potency does the source give for `C=CCn1c(=N)c(C(=O)NCCCOC)cc2c(=O)n3ccccc3nc21` here?
**A.** inactive

**Q.** With `Cc1cccc(C(=O)Nc2sc(C)c(-c3ccccc3)c2C#N)c1` as the molecule, how does the Potency read?
**A.** inconclusive: 1.46 µM [activator, partial curve]

**Q.** For `COc1cc(NC(=O)CCc2c(C)nc3c4c(C)cc(C)nc4nn3c2C)cc(OC)c1`, which Potency is on record?
**A.** inactive

**Q.** Which Potency does the source give for `O=C(COc1ccc([N+](=O)[O-])cc1)N1CCN(c2nnc(-c3ccccc3)c3ccccc23)CC1` here?
**A.** active: 23.1 µM

**Q.** With `CCOC(=O)N1CCN(C(=O)CNS(=O)(=O)c2c(C)cc(C)cc2C)CC1` as the molecule, how does the Potency read?
**A.** inconclusive: 20.6 µM [activator, partial curve, poor fit]

**Q.** With `Cc1cc(C)cc(NC(=O)CCCn2nc(C)c3c(C)n(-c4ccccc4)nc3c2=O)c1` as the molecule, how does the Potency read?
**A.** inconclusive: 14.6 µM [activator, partial curve, poor fit]

**Q.** For `Cc1ccc(CNC(=O)c2nc(S(=O)(=O)Cc3ccc(C)cc3)ncc2Cl)cc1`, which Potency is on record?
**A.** active: 11.6 µM

**Q.** Which Potency does the source give for `Cc1ccc(-n2c(SCc3cn4ccsc4n3)nc3ccccc3c2=O)cc1` here?
**A.** inconclusive: 29.1 µM [falling, single point]

**Q.** For `C=CCN1C(=O)CSc2ccc(C(=O)NCc3cccs3)cc21`, which Potency is on record?
**A.** inconclusive: 23.1 µM [falling, single point]

**Q.** Which Potency does the source give for `COc1cccc(-c2nc(SCC(=O)NC3CCCC3)c(-c3ccc(F)cc3)[nH]2)c1` here?
**A.** active: 18.4 µM

**Q.** Which Potency does the source give for `N/C(=N\OC(=O)c1ccc(Cl)c(Cl)c1)c1cccnc1` here?
**A.** inconclusive: 10.3 µM [activator, partial curve, poor fit]

**Q.** With `CC1CCN(S(=O)(=O)c2ccc3nc(Nc4cccc(C(F)(F)F)c4)ccc3c2)CC1` as the molecule, how does the Potency read?
**A.** inconclusive: 18.4 µM [falling, single point]

**Q.** For `CC(C)(C)OC(=O)N(Cc1ccccc1)Cc1ccccc1OCc1ccc(NC(=O)C2CCC2)cc1`, which Potency is on record?
**A.** inconclusive: 3.66 µM [activator, full curve]

**Q.** Which Potency does the source give for `COCc1nc(-c2ccc(-c3ccccc3)nc2OC)no1` here?
**A.** inconclusive: 0.146 µM [activator, full curve]

**Q.** Which Potency does the source give for `COc1ccc(C(=O)Nc2ccc3c(c2)OCCO3)cc1[N+](=O)[O-]` here?
**A.** inconclusive: 32.6 µM [activator, single point]

**Q.** Which Potency does the source give for `O=C(Nc1ccc(NC(=O)c2ccccc2Cl)nc1)c1ccco1` here?
**A.** inconclusive: 29.1 µM [falling, single point]

**Q.** For `CC1CN(S(=O)(=O)c2cccc(C(=O)Nc3ccc4c(c3)CCC4)c2)CC(C)O1` (stereo not drawn), which Potency is on record?
**A.** active: 23.1 µM

**Q.** With `C=CCn1c(SCC(=O)c2ccc(O)c(O)c2)nnc1-c1ccc(OC)cc1` as the molecule, how does the Potency read?
**A.** inconclusive: 29.1 µM [falling, single point]

**Q.** Which Potency does the source give for `Cc1oc(-c2ccccc2F)nc1CS(=O)(=O)CC(=O)NC(C)CCc1ccccc1` (stereo not drawn) here?
**A.** inconclusive: 20.6 µM [falling, partial curve, poor fit]
